Data: publication PMC10362797, “Phosphorylation of USP20 on Ser334 by IRAK1 promotes IL-1β-evoked signaling in vascular smooth muscle cells and vascular inflammation” (The Journal of Biological Chemistry, 2023)
These are yes or no findings as the source states them, for the method shown. In cells and extracts the contact can be indirect. Some entries that bind do so weakly or less than the wild type.

Chains of the proteins cited; added tags and fusions are not shown.
UniProt Q8C6M1: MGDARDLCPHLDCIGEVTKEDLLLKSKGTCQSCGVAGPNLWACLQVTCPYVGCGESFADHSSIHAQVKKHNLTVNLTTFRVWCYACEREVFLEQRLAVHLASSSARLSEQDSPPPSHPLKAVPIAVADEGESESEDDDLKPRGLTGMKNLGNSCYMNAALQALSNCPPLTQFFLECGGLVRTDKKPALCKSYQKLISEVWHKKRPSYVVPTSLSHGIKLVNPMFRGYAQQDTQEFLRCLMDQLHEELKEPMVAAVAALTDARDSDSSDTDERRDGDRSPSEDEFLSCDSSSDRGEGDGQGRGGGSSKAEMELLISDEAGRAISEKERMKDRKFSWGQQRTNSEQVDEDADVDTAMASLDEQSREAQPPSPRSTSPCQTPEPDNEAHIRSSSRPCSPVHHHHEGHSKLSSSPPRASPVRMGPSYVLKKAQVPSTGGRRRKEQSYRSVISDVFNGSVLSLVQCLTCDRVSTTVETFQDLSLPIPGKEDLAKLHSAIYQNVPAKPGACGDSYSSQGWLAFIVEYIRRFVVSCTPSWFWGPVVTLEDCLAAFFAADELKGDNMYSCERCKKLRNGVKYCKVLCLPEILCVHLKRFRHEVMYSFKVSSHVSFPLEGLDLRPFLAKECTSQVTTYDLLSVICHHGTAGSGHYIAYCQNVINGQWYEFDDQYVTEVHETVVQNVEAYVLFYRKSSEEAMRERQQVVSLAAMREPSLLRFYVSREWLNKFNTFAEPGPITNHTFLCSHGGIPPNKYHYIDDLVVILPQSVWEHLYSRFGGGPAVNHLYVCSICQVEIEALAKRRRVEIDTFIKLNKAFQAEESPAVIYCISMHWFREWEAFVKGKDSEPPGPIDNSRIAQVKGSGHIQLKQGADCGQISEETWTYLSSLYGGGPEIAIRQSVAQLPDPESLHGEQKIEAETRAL

Target: T1, TRAF6 (TNFR-associated factor 6), endogenous (mouse (endogenous in mouse SMCs)) (UniProt P70196)
T1 sequence: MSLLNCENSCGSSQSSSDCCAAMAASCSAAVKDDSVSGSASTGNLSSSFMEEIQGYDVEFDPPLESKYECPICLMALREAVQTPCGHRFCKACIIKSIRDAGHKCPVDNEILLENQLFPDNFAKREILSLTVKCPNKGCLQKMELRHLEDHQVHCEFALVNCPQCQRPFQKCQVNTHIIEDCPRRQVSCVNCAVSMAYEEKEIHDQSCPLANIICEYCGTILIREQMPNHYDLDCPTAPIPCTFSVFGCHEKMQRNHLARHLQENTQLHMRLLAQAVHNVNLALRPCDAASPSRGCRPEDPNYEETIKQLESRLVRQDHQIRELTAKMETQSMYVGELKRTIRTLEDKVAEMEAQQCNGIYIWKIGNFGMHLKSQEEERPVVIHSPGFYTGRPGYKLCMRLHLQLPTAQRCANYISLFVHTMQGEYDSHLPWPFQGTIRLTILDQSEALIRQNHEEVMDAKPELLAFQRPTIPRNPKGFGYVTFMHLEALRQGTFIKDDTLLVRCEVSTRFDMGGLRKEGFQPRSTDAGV
Assay: co-IP; endogenous TRAF6 immunoprecipitated with anti-TRAF6(D-10) agarose overnight at 4 °C from lysates of mouse SMCs transduced with HA-USP20, serum starved 1 h and stimulated with IL-1β (1 ng/ml, 20 min); lysis buffer 50 mM Hepes pH 7.5, 2 mM EDTA, 250 mM NaCl, 10% glycerol, 0.5% Nonidet P-40; immunoblot for HA

## HA-tagged USP20-WT (ubiquitin-specific peptidase 20, mouse) (from UniProt Q8C6M1 1-916) (enzyme)
  binding: binds
